Results as given in the supplement of paper PMC10849652.
The other results are listed elsewhere or left out.

The chains behind the UniProt entries cited, without tags or fusion partners. Where a name states a change or a piece, a line headed by the entry shows the natural chain unless it says otherwise.
UniProt Q9H3J6: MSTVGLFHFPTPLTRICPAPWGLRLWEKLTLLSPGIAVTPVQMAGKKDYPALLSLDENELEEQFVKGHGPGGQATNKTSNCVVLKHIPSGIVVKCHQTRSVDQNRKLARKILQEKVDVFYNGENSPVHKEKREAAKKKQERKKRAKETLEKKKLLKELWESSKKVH
UniProt Q86VP6: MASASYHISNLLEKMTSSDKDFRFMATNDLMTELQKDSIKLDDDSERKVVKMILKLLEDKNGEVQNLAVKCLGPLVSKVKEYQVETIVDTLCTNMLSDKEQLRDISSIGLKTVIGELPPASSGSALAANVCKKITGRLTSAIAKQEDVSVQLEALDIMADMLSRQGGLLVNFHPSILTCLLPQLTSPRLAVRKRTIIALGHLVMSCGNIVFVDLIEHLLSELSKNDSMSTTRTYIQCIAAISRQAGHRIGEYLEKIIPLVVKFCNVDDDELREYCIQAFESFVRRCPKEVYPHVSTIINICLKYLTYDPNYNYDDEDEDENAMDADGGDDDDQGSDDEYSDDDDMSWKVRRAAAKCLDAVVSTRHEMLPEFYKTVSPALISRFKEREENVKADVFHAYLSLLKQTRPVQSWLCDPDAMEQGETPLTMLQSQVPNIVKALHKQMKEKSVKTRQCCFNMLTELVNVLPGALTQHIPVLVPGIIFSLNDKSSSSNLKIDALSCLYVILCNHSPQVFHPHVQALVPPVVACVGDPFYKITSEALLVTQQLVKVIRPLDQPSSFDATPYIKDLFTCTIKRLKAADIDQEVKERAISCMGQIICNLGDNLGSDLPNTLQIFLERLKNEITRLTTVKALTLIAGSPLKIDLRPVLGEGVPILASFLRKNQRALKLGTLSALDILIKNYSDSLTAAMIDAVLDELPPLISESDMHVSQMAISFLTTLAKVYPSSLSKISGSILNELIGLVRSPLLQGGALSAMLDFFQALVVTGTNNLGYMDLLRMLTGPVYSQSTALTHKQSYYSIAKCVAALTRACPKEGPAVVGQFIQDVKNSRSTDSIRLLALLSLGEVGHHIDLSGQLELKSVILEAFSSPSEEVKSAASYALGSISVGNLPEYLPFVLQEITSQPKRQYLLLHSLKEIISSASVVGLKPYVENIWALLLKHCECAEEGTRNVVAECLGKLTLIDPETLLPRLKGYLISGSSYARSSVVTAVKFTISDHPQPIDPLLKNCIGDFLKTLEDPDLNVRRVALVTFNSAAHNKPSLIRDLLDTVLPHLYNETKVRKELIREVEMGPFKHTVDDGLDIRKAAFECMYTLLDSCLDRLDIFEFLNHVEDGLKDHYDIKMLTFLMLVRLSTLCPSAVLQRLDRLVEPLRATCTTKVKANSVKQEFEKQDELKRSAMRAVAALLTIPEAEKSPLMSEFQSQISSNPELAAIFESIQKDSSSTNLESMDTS
UniProt Q14012: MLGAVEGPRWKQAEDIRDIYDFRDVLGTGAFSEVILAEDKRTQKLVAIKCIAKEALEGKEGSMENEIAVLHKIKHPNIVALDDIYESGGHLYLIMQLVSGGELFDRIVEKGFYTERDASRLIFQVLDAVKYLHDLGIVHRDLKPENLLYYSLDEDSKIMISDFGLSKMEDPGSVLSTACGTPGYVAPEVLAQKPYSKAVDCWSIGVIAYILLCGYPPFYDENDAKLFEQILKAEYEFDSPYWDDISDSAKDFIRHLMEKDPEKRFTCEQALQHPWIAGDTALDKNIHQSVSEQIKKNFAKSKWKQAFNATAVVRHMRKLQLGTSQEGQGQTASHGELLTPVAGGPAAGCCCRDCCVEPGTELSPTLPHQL
UniProt P07384: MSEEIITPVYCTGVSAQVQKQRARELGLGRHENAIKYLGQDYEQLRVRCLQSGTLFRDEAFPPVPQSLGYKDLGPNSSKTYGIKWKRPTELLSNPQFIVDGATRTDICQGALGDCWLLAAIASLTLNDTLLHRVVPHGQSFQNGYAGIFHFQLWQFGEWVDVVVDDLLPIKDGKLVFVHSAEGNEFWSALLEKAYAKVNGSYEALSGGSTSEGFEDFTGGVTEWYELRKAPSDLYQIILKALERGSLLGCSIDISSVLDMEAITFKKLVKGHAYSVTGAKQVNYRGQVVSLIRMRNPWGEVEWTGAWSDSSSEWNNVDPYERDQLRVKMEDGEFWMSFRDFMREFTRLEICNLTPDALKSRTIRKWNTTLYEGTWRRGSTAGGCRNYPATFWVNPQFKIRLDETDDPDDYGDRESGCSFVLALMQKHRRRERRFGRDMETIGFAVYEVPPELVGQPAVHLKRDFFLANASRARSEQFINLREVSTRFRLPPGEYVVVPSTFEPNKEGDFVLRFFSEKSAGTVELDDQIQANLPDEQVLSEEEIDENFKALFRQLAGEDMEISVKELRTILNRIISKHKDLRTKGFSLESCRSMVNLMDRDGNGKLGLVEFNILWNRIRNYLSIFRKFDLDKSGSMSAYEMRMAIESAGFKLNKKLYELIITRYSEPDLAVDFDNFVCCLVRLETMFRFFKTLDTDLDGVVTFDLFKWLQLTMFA
UniProt O43709: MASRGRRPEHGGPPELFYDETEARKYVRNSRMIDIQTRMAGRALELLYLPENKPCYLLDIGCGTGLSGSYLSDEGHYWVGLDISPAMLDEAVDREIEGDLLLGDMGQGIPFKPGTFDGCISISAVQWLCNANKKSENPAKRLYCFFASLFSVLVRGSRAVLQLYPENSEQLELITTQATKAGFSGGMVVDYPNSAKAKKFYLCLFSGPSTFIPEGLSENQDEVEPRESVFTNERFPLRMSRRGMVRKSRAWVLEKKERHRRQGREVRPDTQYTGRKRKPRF
UniProt Q9Y6E2: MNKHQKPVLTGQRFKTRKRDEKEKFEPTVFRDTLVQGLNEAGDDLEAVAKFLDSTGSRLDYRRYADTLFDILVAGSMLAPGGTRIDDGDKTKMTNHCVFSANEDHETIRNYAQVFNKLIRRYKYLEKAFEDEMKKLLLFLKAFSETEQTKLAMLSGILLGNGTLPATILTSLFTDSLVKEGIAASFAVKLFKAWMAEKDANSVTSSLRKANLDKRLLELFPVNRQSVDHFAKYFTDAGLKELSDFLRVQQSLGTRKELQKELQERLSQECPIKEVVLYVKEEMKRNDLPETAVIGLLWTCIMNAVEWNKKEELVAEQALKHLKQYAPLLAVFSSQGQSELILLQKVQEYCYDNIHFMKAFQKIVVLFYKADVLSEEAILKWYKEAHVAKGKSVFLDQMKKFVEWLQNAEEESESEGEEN
UniProt Q8N6N3: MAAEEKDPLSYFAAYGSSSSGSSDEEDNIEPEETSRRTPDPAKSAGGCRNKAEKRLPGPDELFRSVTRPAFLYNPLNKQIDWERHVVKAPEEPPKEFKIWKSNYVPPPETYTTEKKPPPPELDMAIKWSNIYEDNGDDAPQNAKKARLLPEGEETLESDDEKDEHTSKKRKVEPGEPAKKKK
UniProt Q6P1S2: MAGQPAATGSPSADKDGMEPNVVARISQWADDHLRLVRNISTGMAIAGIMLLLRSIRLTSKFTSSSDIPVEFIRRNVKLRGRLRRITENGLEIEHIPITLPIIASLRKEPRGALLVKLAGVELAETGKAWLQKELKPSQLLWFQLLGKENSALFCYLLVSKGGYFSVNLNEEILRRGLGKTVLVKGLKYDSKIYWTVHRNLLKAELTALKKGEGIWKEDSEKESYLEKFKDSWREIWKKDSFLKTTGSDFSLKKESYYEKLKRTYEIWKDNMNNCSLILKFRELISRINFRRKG

Assays:
Assay in all cases: log2 fold change, soluble protein after heating vs DMSO (PISA); higher = thermal stabilisation; K562 lysate, 10 uM; active = over 0.2 and 3.5 SD of the protein, either way, in both replicates (recomputed)
lapatinib = compound: CS(=O)(=O)CCNCc1ccc(-c2ccc3ncnc(Nc4ccc(OCc5cccc(F)c5)c(Cl)c4)c3c2)o1 [lapatinib]
Method in brief: (§1)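 A 30 min treatment with 10 μM compound was applied to crude K562 extract at 1 mg/mL protein in PBS pH 7.4 with 1 mM MgCl2. Heating for 3 min spanned 48°C-58°C, after which aliquots were pooled, adjusted to 0.5% NP-40 at 4°C and spun at 21,000xg for 90 min. TMTpro 16plex LC-MS/MS of the supernatant, with channel sums equalised, gave values recorded as log-two fold change in thermal stability against solvent controls, from duplicates.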

pictilisib = compound: CS(=O)(=O)N1CCN(Cc2cc3nc(-c4cccc5[nH]ncc45)nc(N4CCOCC4)c3s2)CC1 [pictilisib]
Method in brief: as §1

crizotinib = compound: C[C@@H](Oc1cc(-c2cnn(C3CCNCC3)c2)cnc1N)c1c(Cl)ccc(F)c1Cl [crizotinib]
Method in brief: as §1

[1] = compound: C[C@H](C1=CC=C(C=C1)C(=O)NC2=C3C=CNC3=NC=C2)N
Method in brief: as §1

duvelisib = compound: C[C@H](Nc1ncnc2nc[nH]c12)c1cc2cccc(Cl)c2c(=O)n1-c1ccccc1 [duvelisib]
Method in brief: as §1

gandotinib = compound: Cc1cc(Nc2cc(CN3CCOCC3)c3nc(C)c(Cc4ccc(Cl)cc4F)n3n2)n[nH]1 [gandotinib]
Method in brief: as §1

tozasertib = compound: Cc1cc(Nc2cc(N3CCN(C)CC3)nc(Sc3ccc(NC(=O)C4CC4)cc3)n2)n[nH]1 [tozasertib]
Method in brief: as §1

doramapimod = compound: Cc1ccc(-n2nc(C(C)(C)C)cc2NC(=O)Nc2ccc(OCCN3CCOCC3)c3ccccc23)cc1 [doramapimod]
Method in brief: as §1

bafetinib = compound: Cc1ccc(NC(=O)c2ccc(CN3CC[C@H](N(C)C)C3)c(C(F)(F)F)c2)cc1Nc1nccc(-c2cncnc2)n1 [bafetinib]
Method in brief: as §1

[2] = compound: Cc1cccc(CC(=O)N2CCc3c2ccc(-c2cn(C)c4ncnc(N)c24)c3F)n1
Method in brief: as §1

nilotinib = compound: Cc1cn(-c2cc(NC(=O)c3ccc(C)c(Nc4nccc(-c5cccnc5)n4)c3)cc(C(F)(F)F)c2)cn1 [nilotinib]
Method in brief: as §1

[3] = compound: Cc1nc(Nc2n[nH]c3c2CN(C(=O)N[C@H](CN(C)C)c2ccccc2)C3(C)C)c2sccc2n1
Method in brief: as §1

dasatinib = compound: Cc1nc(Nc2ncc(C(=O)Nc3c(C)cccc3Cl)s2)cc(N2CCN(CCO)CC2)n1 [dasatinib]
Method in brief: as §1

[4] = compound: Cc1ncc(-c2ccnc(Nc3ccc(S(C)(=O)=O)cc3)n2)n1C(C)C
Method in brief: as §1

[5] = compound: Cn1cc(-c2ccc3c(c2)CCN3C(=O)Cc2cccc(C(F)(F)F)c2)c2c(N)ncnc21
Method in brief: as §1

quisinostat = compound: Cn1cc(CNCC2CCN(c3ncc(C(=O)NO)cn3)CC2)c2ccccc21 [quisinostat]
Method in brief: as §1

tipifarnib = compound: Cn1cncc1[C@@](N)(c1ccc(Cl)cc1)c1ccc2c(c1)c(-c1cccc(Cl)c1)cc(=O)n2C [tipifarnib]
Method in brief: as §1

[6] = compound: NC(=O)Nc1cc(-c2cccc(F)c2)sc1C(=O)N[C@H]1CCCNC1
Method in brief: as §1

[7] = compound: NC(=O)c1cnc(N[C@@H]2CCCC[C@@H]2N)nc1Nc1cccc(-n2nccn2)c1
Method in brief: as §1

[8] = compound: NC1(c2ccc(-c3nc4ccn5c(=O)[nH]nc5c4cc3-c3ccccc3)cc2)CCC1
Method in brief: as §1

Target	log2 fold change (lapatinib)	log2 fold change (pictilisib)	log2 fold change (crizotinib)	log2 fold change [1]	log2 fold change (duvelisib)	log2 fold change (gandotinib)	log2 fold change (tozasertib)	log2 fold change (doramapimod)	log2 fold change (bafetinib)	log2 fold change [2]	log2 fold change (nilotinib)	log2 fold change [3]	log2 fold change (dasatinib)	log2 fold change [4]	log2 fold change [5]	log2 fold change (quisinostat)	log2 fold change (tipifarnib)	log2 fold change [6]	log2 fold change [7]	log2 fold change [8]
C12orf65 (UniProt Q9H3J6)	inactive: 0.037	inactive: 0	inactive: 0.065	inactive: 0.03	inactive: -0.087	inactive: -0.013	inactive: -0.053	inactive: 0.05	inactive: -0.117	inactive: 0.063	inactive: -0.022	inactive: 0.046	inactive: 0	inactive: 0.027	inactive: 0.021	inactive: -0.022	inactive: 0.029	inactive: -0.023	inactive: 0.023	inactive: 0.03
CAND1 (UniProt Q86VP6)	inactive: -0.008	inactive: 0.016	inactive: -0.001	inactive: -0.099	inactive: 0.029	inactive: 0.052	inactive: -0.012	inactive: 0.009	inactive: 0.007	inactive: 0.036	inactive: 0.029	inactive: -0.005	inactive: 0.012	inactive: 0.007	inactive: 0	inactive: -0.005	inactive: 0.001	inactive: -0.013	inactive: -0.006	inactive: 0
CAMK1 (UniProt Q14012)	inactive: -0.037	inactive: -0.058	inactive: -0.078	inactive: -0.145	inactive: -0.042	inactive: 0.187	inactive: 0.05	inactive: -0.006	inactive: -0.047	active: 0.314	inactive: -0.086	inactive: 0.04	inactive: 0.021	inactive: 0.064	inactive: 0.008	inactive: -0.12	inactive: -0.071	inactive: 0.194	inactive: 0.018	inactive: -0.023
CAPN1 (UniProt P07384)	inactive: 0.03	inactive: 0.018	inactive: 0.016	inactive: 0.021	inactive: 0.004	inactive: 0.058	inactive: -0.036	inactive: 0.119	inactive: 0.078	inactive: -0.025	inactive: -0.005	inactive: 0.013	inactive: 0.027	inactive: 0.004	inactive: 0.02	inactive: -0.038	inactive: -0.025	inactive: -0.021	inactive: -0.015	inactive: -0.015
BUD23 isoform 3 (UniProt O43709)	inactive: 0.052	inactive: -0.017	inactive: 0.07	active: -0.305	inactive: 0.025	inactive: 0.136	inactive: -0.073	inactive: -0.035	inactive: -0.088	inactive: 0.152	inactive: -0.003	inactive: -0.008	inactive: 0.035	inactive: -0.084	inactive: 0.035	inactive: 0.009	inactive: 0.015	inactive: 0.035	inactive: -0.076	inactive: -0.017
BZW2 (UniProt Q9Y6E2)	inactive: -0.022	inactive: 0.015	inactive: 0.028	inactive: 0.017	inactive: -0.018	inactive: -0.088	inactive: 0.034	inactive: -0.001	inactive: 0.017	inactive: -0.008	inactive: 0.007	inactive: 0	inactive: -0.039	inactive: -0.008	inactive: 0.012	inactive: 0.097	inactive: -0.003	inactive: 0.011	inactive: 0.002	inactive: 0.016
C1orf52 (UniProt Q8N6N3)	inactive: -0.003	inactive: 0.04	inactive: 0.035	inactive: -0.043	inactive: 0.009	inactive: 0.114	inactive: -0.034	inactive: -0.04	inactive: -0.019	inactive: 0	inactive: -0.011	inactive: 0.039	inactive: 0.016	inactive: -0.008	inactive: -0.045	inactive: 0.028	inactive: -0.079	inactive: 0.013	inactive: 0.015	inactive: -0.016
C3orf33 (UniProt Q6P1S2)	inactive: 0.09	inactive: 0.059	inactive: -0.051	inactive: -0.541	inactive: 0.101	inactive: 0.14	–	inactive: -0.025	inactive: -0.046	inactive: 0.263	inactive: -0.105	inactive: -0.15	inactive: -0.013	inactive: 0.009	inactive: -0.072	inactive: -0.14	inactive: 0.007	inactive: 0.274	inactive: 0.094	inactive: 0.123
